{"source": "PubChem BioAssay AID504764 (Drosophila RNAi Screening Center, 2011)", "screen": "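Genes whose knock-down alters Notch-dependent transcription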 (primary screen)", "system": "Drosophila Kc167 cells", "knock-down reagent": "long dsRNA against Drosophila genes", "time to read-out": "about 5 days (4 days dsRNA, then 24 h after transfection)", "treatment": "transfection of constitutively active membrane-tethered Notch lacking the extracellular domain, read 24 h later", "detection": "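Light from a Notch-responsive E(spl)m3 luciferase reporter under active Notch, with control-promoter and no-Notch reporter wells to normalise; raw counts from paired wells a and b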", "scale": "induced reporter light, run 1, well a and induced reporter light, run 1, well b: higher = more light from the Notch target reporter with active Notch; control promoter light, run 1, well a and control promoter light, run 1, well b: higher = more light from the viral control promoter (cell number, transfection, viability); uninduced reporter light, run 1, well a: higher = more light from the Notch target reporter without active Notch", "call rule": "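Wells with low control signal or poorly matching duplicates excluded; duplicates averaged; per source plate, z beyond ±2 for induced/control log2 ratio or beyond ±1.8 for induced/uninduced marks a hit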", "meaning of the calls": "active = modifier hit (raised or lowered Notch signal); inactive = not a hit", "note": "The screen tested about 22,000 reagents; below is a random part of those with a known target gene and a result. In the full data, 403 (1.9%) are marked active. 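Unnormalised raw counts per well; ratio z-scores behind the hit calls and whether each hit raises or lowers signal are not deposited.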 A number with no mark means an inactive call. Not stated in the record: the amount of reagent."}
{"Gene": "CG31183", "dsRNA": "DRSC14403", "induced reporter light, run 1, well a": 2.17e5, "induced reporter light, run 1, well b": 1.96e5, "control promoter light, run 1, well a": 2.18e5, "control promoter light, run 1, well b": 2.06e5, "uninduced reporter light, run 1, well a": 18290}
{"Gene": "CG31183", "dsRNA": "DRSC15554", "induced reporter light, run 1, well a": 2.45e5, "induced reporter light, run 1, well b": 2.42e5, "control promoter light, run 1, well a": 3.02e5, "control promoter light, run 1, well b": 3.35e5, "uninduced reporter light, run 1, well a": 18280}
{"Gene": "CG11095", "dsRNA": "DRSC19375", "induced reporter light, run 1, well a": "1.94e5 (active)", "induced reporter light, run 1, well b": 1.14e5, "control promoter light, run 1, well a": 1.28e5, "control promoter light, run 1, well b": 1.73e5, "uninduced reporter light, run 1, well a": 6260}
{"Gene": "CG3640", "dsRNA": "DRSC04399", "induced reporter light, run 1, well a": 2.41e5, "induced reporter light, run 1, well b": 2.00e5, "control promoter light, run 1, well a": 2.08e5, "control promoter light, run 1, well b": 1.51e5, "uninduced reporter light, run 1, well a": 16338}
{"Gene": "dod (dodo)", "dsRNA": "DRSC20577", "induced reporter light, run 1, well a": 51330, "induced reporter light, run 1, well b": 79245, "control promoter light, run 1, well a": 63960, "control promoter light, run 1, well b": 96870, "uninduced reporter light, run 1, well a": 8082}
{"Gene": "Gr47b (Gustatory receptor 47b)", "dsRNA": "DRSC05275", "induced reporter light, run 1, well a": 2.05e5, "induced reporter light, run 1, well b": 2.34e5, "control promoter light, run 1, well a": 2.53e5, "control promoter light, run 1, well b": 2.83e5, "uninduced reporter light, run 1, well a": 23590}
{"Gene": "Brms1 (BRMS1 transcriptional repressor)", "dsRNA": "DRSC19896", "induced reporter light, run 1, well a": 1.60e5, "induced reporter light, run 1, well b": 1.36e5, "control promoter light, run 1, well a": 2.69e5, "control promoter light, run 1, well b": 1.91e5, "uninduced reporter light, run 1, well a": 9565}
{"Gene": "CG12951", "dsRNA": "DRSC14579", "induced reporter light, run 1, well a": 68365, "induced reporter light, run 1, well b": 96860, "control promoter light, run 1, well a": 93230, "control promoter light, run 1, well b": 77595, "uninduced reporter light, run 1, well a": 5020}

2 entries from above, sorted by “induced reporter light, run 1, well b”, low to high:
{"Gene": "CG11095", "dsRNA": "DRSC19375", "induced reporter light, run 1, well a": "1.94e5 (active)", "induced reporter light, run 1, well b": 1.14e5, "control promoter light, run 1, well a": 1.28e5, "control promoter light, run 1, well b": 1.73e5, "uninduced reporter light, run 1, well a": 6260}
{"Gene": "CG3640", "dsRNA": "DRSC04399", "induced reporter light, run 1, well a": 2.41e5, "induced reporter light, run 1, well b": 2.00e5, "control promoter light, run 1, well a": 2.08e5, "control promoter light, run 1, well b": 1.51e5, "uninduced reporter light, run 1, well a": 16338}

More reagents follow.
{"Gene": "side-VI (sidestep VI)", "dsRNA": "DRSC12828", "induced reporter light, run 1, well a": 1.79e5, "induced reporter light, run 1, well b": 1.53e5, "control promoter light, run 1, well a": 1.66e5, "control promoter light, run 1, well b": 1.97e5, "uninduced reporter light, run 1, well a": 10890}
{"Gene": "side-VI (sidestep VI)", "dsRNA": "DRSC12830", "induced reporter light, run 1, well a": 1.51e5, "induced reporter light, run 1, well b": 1.30e5, "control promoter light, run 1, well a": 1.44e5, "control promoter light, run 1, well b": 1.52e5, "uninduced reporter light, run 1, well a": 12428}
{"Gene": "side-VI (sidestep VI)", "dsRNA": "DRSC14920", "induced reporter light, run 1, well a": 54885, "induced reporter light, run 1, well b": 58150, "control promoter light, run 1, well a": 79040, "control promoter light, run 1, well b": 55895, "uninduced reporter light, run 1, well a": 2345}
{"Gene": "side-VI (sidestep VI)", "dsRNA": "DRSC15624", "induced reporter light, run 1, well a": 56980, "induced reporter light, run 1, well b": 55610, "control promoter light, run 1, well a": 52325, "control promoter light, run 1, well b": 52875, "uninduced reporter light, run 1, well a": 3295}
{"Gene": "numb", "dsRNA": "DRSC03584", "induced reporter light, run 1, well a": 1.83e5, "induced reporter light, run 1, well b": 2.44e5, "control promoter light, run 1, well a": 2.00e5, "control promoter light, run 1, well b": 2.04e5, "uninduced reporter light, run 1, well a": 17582}
{"Gene": "Gr36c (Gustatory receptor 36c)", "dsRNA": "DRSC02437", "induced reporter light, run 1, well a": 1.06e5, "induced reporter light, run 1, well b": 97935, "control promoter light, run 1, well a": 1.42e5, "control promoter light, run 1, well b": 1.38e5, "uninduced reporter light, run 1, well a": 9130}
{"Gene": "CG11170", "dsRNA": "DRSC04090", "induced reporter light, run 1, well a": 1.94e5, "induced reporter light, run 1, well b": 1.99e5, "control promoter light, run 1, well a": 1.58e5, "control promoter light, run 1, well b": 1.68e5, "uninduced reporter light, run 1, well a": 11850}
{"Gene": "Ttc30 (Tetratricopeptide repeat domain 30)", "dsRNA": "DRSC01300", "induced reporter light, run 1, well a": 1.08e5, "induced reporter light, run 1, well b": 81150, "control promoter light, run 1, well a": 1.43e5, "control promoter light, run 1, well b": 1.24e5, "uninduced reporter light, run 1, well a": 8160}
{"Gene": "Ttc30 (Tetratricopeptide repeat domain 30)", "dsRNA": "DRSC02818", "induced reporter light, run 1, well a": 1.48e5, "induced reporter light, run 1, well b": 1.54e5, "control promoter light, run 1, well a": 1.51e5, "control promoter light, run 1, well b": 1.44e5, "uninduced reporter light, run 1, well a": 12020}
{"Gene": "papi", "dsRNA": "DRSC00693", "induced reporter light, run 1, well a": 1.64e5, "induced reporter light, run 1, well b": 1.88e5, "control promoter light, run 1, well a": 1.76e5, "control promoter light, run 1, well b": 2.03e5, "uninduced reporter light, run 1, well a": 18030}
